Assay results published in PubChem BioAssay AID1439 (NMMLSC, 2008).
About 770 (0.35%) of roughly 220,000 compounds were called active. This list was built around the results that the source calls inconclusive (neither active nor inactive); the mix of calls is not that of the screen. Rule as the data show it: active = binding response below about 49% or above about 150%; inconclusive = no clear call, values can overlap the other calls; inactive = in between.

Protein sequences, listed by entry. Tags and fused reporters are not part of them.
UniProt P09471, whole entry, looked up: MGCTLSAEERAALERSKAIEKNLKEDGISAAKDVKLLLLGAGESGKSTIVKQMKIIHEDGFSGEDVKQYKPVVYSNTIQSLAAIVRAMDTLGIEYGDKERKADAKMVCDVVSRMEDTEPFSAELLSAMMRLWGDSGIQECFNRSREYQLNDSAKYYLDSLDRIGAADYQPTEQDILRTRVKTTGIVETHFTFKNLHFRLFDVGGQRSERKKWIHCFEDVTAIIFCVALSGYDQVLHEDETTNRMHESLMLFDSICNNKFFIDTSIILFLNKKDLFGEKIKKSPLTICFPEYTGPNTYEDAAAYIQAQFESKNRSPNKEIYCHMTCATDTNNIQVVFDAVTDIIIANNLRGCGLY

biological target: Guanine nucleotide-binding protein G(o) subunit alpha (Homo sapiens) (UniProt P09471); assay: RGS7-Galphao binding modulators, primary screen, biochemical, multiplexed bead flow cytometry (AID 1439); details: at 10 µM, actives lie on both sides;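 also: fluorescent Galphao held in activated GDP-AlF4 state binding bead-coupled RGS7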

SMILES | binding response (% of control)
Cc1ccc(C(=O)Nc2cccc(C(F)(F)F)c2)cc1Nc1cnccn1 | inconclusive: 101%
Cn1cccc1CC(=O)NNC(=O)Nc1cccc(Cl)c1 | inactive: 102%
O=C(NCC1CCCO1)c1cc(S(=O)(=O)Nc2ccc(Br)cc2)ccc1Cl (configuration not stated) | inactive: 96.2%
Cc1c(Br)c([N+](=O)[O-])nn1CC(=O)N1CCc2ccccc2C1 | inactive: 98.6%
O=C(N/N=C/c1ccccc1OC(F)F)c1cc(-c2ccncc2)nc2ccccc12 | inconclusive: 93.7%
Cc1cc([N+](=O)[O-])nn1CC(=O)N/N=C/c1ccccc1O | inconclusive: 38.6%
CCCCOc1ccc(-c2nc(=S)[nH][nH]2)cc1 | inactive: 99.3%
COc1ccc(OCC(O)CNC(=O)c2c(-c3ccccc3)noc2C)cc1 (configuration not stated) | inconclusive: 109%
CSc1ncccc1C(=O)Nc1nc2c(C)cccc2s1 | inactive: 102%
Cc1ccc(N=Cc2c(O)cc(C)oc2=O)c(C)c1 | inconclusive: 92.9%
O=C(CSc1nnc(-c2c[nH]c3ccccc23)o1)c1ccc(-c2ccccc2)cc1 | inactive: 102%
Oc1ccc(/C=C/c2nc(-c3ccccc3O)n(-c3ccccc3)n2)cc1 | inactive: 95.3%
O=C(CCN1CCCCC1)NNC(=O)C12CC3CC(CC(C3)C1)C2 | inconclusive: 95.7%
O=C(CSc1nc(O)cc(=O)n1C1CCCC1)Nc1cccc(Cl)c1Cl | inactive: 101%
COC(=O)c1ccc(Oc2nc(SC)nc(N(C)C)n2)cc1 | inconclusive: 50.5%
O=C(COC(=O)CN=C1NS(=O)(=O)c2ccccc21)Nc1ccccc1OC(F)F | inconclusive: 115%
Cc1cc(SCC(=O)c2ccccc2)n2ncc(-c3ccccc3)c2n1 | inconclusive: 61.2%
CSc1cccc(NC(=S)NCCCO)c1 | inconclusive: 208%
O=C(CCc1nnc(CCc2ccccc2)o1)NC(c1cccnc1)C(F)(F)F (configuration not stated) | inconclusive: 77.9%
COc1ccc(C(=O)OCC(=O)Nc2sccc2C(N)=O)cc1OC | inconclusive: -297%
NNc1nc2c(-c3ccc(Cl)cc3)nnn2c2ccccc12 | inconclusive: 94.2%
NC(=O)C1CCN(C2=C(NS(=O)(=O)c3ccccc3)C(=O)c3ccccc3C2=O)CC1 | inconclusive: 280%
CCOC(=O)C1=C(C)NC(C)=C(C(=O)OCC)C1 | inconclusive: 58.9%

SMILES | binding response (% of control)
Cc1cccc(NC(=S)NC(C)C(c2cccs2)N2CCN(C)CC2)c1C (configuration not stated) | inconclusive: 81%
Nc1ccc2oc(-c3ccccc3Cl)nc2c1 | inactive: 96.1%
O=C(CN1C(=O)c2ccccc2S1(=O)=O)c1ccc2c(c1)OCCCO2 | inconclusive: 104%
COc1ccc(OC)c(CCNC(=O)CSc2ccsc2[N+](=O)[O-])c1 | inconclusive: 87.4%
Cc1nnsc1C(=O)NNC(=O)Nc1ccccc1 | inactive: 97.2%
CCOC(=O)N1CCN(c2cc(=O)n(C)c(=O)n2C)CC1 | inconclusive: 62.9%
CCOc1cc(N2CCOCC2)c(OCC)cc1NC(=O)c1oc2ccccc2c1C | inconclusive: 71.7%
N#Cc1cc2ccccc2nc1N | inconclusive: 95.4%
O=[N+]([O-])c1cc2c(cc1/C=N/n1c(-c3ccccn3)n[nH]c1=S)OCO2 | inactive: 83.7%
COC(=O)c1cc(-c2cccs2)[nH]n1 | inconclusive: 108%
Cn1c(N2CCOCC2)c(/C=N/O)c2ccccc21 | inconclusive: 206%
O=C(NCc1ccccc1)c1c[nH]c2cc3c(cc2c1=O)OCCO3 | inactive: 96.1%
Cc1nnc(-c2cnn(C)c2N)n1CCCN(C)C | inconclusive: 95.8%
Cc1cnc(C(=O)N2CCCC(C(=O)c3ccc(C(F)(F)F)cc3)C2)cn1 (configuration not stated) | inactive: 107%
COc1ccc(C2/C=C\CN(C(=O)Nc3ccc(C(F)(F)F)cc3)CC(=O)N2Cc2ccc(F)cc2)cc1 (configuration not stated) | inconclusive: 107%
COc1c(Br)cc(C(N)=O)cc1OCc1ccccc1 | inactive: 77.2%
COc1cccc(/C=C2\Oc3cc(OC(=O)N4CCOCC4)ccc3C2=O)c1 | inconclusive: 98.5%
O=C(CC1NCCNC1=O)NC1Cc2ccccc2C1 (configuration not stated) | inconclusive: 107%
Cc1cc(C)c(O)c(-c2n[nH]c3c2C(c2cccc(O)c2)N(Cc2ccco2)C3=O)c1 (configuration not stated) | inconclusive: 182%
Cc1ccc(NC(=O)CCCc2ccccc2)nc1 | inconclusive: 95.9%
COc1cccc(C(C(=O)NC2CCCCC2)N(C(=O)Cc2cccs2)c2ccc(-n3cnnn3)c(OC)c2)c1 (configuration not stated) | inactive: 98.7%
CCOc1ccccc1C(=O)Nc1ccc(-n2nncc2C(C)(C)C)cc1 | inactive: 102%
CCOC(=O)N1CCN(c2c(N3CCN(c4ccccc4F)CC3)c(=O)c2=O)CC1 | inconclusive: 87.3%

2 consecutive entries already listed, quoted:
SMILES | binding response (% of control)
COc1ccc(OC)c(CCNC(=O)CSc2ccsc2[N+](=O)[O-])c1 | inconclusive: 87.4%
Cc1nnsc1C(=O)NNC(=O)Nc1ccccc1 | inactive: 97.2%

(more compounds)

SMILES | binding response (% of control)
CCOc1ccc(N2C(=O)CN(CC(=O)OC)C2=S)cc1 | inactive: 102%
Cc1cc(C)c(-n2nnnc2SC(C)C)c(C)c1 | inactive: 92.3%
Cn1c(NNC(=O)c2ccccc2F)cc(=O)n(C)c1=O | inconclusive: 117%
O=C(Nc1ccc2sccc2c1)c1cccc(N2C(=O)CCC2=O)c1 | inconclusive: 116%
CS(=O)(=O)N1CCN(c2ccc([N+](=O)[O-])c(NCc3cccnc3)c2)CC1 | inconclusive: 95.1%
CCS(=O)(=O)N1Cc2ccccc2CC1C(=O)Nc1ccc(F)cc1 (configuration not stated) | inconclusive: 101%
COc1cccc(C(=O)Nc2cccnc2)c1OC | inconclusive: 116%
COc1ccc(C(=O)NCC2(c3ccccc3)CCOCC2)cc1 | inconclusive: 108%
CC1CC(C)(C)NC(=S)N1CCC(=O)NCCc1ccc(Cl)cc1 (configuration not stated) | inconclusive: 97.9%
Cc1nc2c(-c3ccc(F)cc3)c(C)nn2c(C)c1CCC(=O)Nc1ccccc1F | inconclusive: 112%
CCOC(=O)c1cc2sc(C)cc2n1CC(=O)N1CCN(C(=O)c2ccco2)CC1 | inactive: 101%
CC(=O)Nc1ccc(CN2CCCC(C(=O)c3ccc(C(F)(F)F)cc3)C2)cc1 (configuration not stated) | inactive: 111%
CS(=O)(=O)N1N=C(c2ccco2)CC1c1ccc(Cl)cc1Cl (configuration not stated) | inactive: 94.9%
Cc1ccc(C(=O)N/N=C\c2ccc(-c3ccc(Cl)cc3)o2)cn1 | inconclusive: 104%
O=C(CC(Nc1ccc(Cl)cc1Cl)C(=O)O)c1ccccc1 (configuration not stated) | inconclusive: 55.9%
CCCN(CC1CC1)C(=S)NC(=O)c1ccc(S(=O)(=O)N2CCOCC2)cc1 | inconclusive: 96.4%
Nc1c(C(=O)N/N=C/c2ccc([N+](=O)[O-])cc2)sc2nnc(-c3ccccc3)c(-c3ccccc3)c12 | inconclusive: 33%
O=C(NCc1ccc(F)cc1)c1ccc(Br)o1 | inconclusive: 106%
CCN1CCN(CC(O)COCC2COc3ccccc3O2)CC1 (configuration not stated) | inconclusive: 102%
CC(=O)Oc1ccc(-c2ccc(C(=O)Nc3cccc(S(=O)(=O)N4CCOCC4)c3)cc2)cc1 | inconclusive: 88.1%
Cc1ccc(-c2nc(Nc3ccc(N4CCOCC4)cc3)c3ccccc3n2)cc1 | inconclusive: 118%
CC(C)(C)C1CCC2(CC1)CC(=O)c1ccccc1O2 (configuration not stated) | inconclusive: 97.5%
CCn1c(=O)c([N+](=O)[O-])c(NCCCn2ccnc2)c2ccccc21 | inconclusive: 281%

SMILES | binding response (% of control)
O=S(=O)(c1ccc(F)cc1)N1CCCN(c2nccc(C(F)(F)F)n2)CC1 | inconclusive: 94.9%
O=S(=O)(N/N=C/c1ccccc1F)c1ccccc1 | inconclusive: -150%
Cc1ccc(S(=O)(=O)Nc2nc(C)cc(NN)n2)cc1 | inconclusive: 112%
C=CCOc1cccc(C(=O)NC(c2ccccc2)C(C)C)c1 (configuration not stated) | inconclusive: 95.6%
CNC(=O)COc1ccc(Cl)c2cccnc12 | inconclusive: 124%
Cc1ccc(NC(=O)Nc2cnccn2)cc1C | inconclusive: 94.6%
Cc1cc(C(=O)Cn2nc(C(=O)O)c3ccccc3c2=O)c(C)n1CCc1ccc(F)cc1 | inconclusive: 57.9%
O=C(N/N=C/C(Cl)=C/c1ccc([N+](=O)[O-])cc1)C(=O)Nc1ccc(C(=O)O)cc1 | inconclusive: 52.7%
Cc1nc2ccc(NC(=O)C3COc4ccccc4O3)cc2s1 (configuration not stated) | inconclusive: 119%
COc1ccc(N2CCN(C(=O)CC34CC5CC(CC(C5)C3)C4)CC2)c([N+](=O)[O-])c1 | inactive: 103%
CCOC(=O)c1c(NC(=O)CSc2ncnc3ccccc23)sc(C(C)=O)c1C | inactive: 98.3%
CCN1CCCC1CNC(=O)C1CCN(Cc2nc(-c3cccc(Br)c3)oc2C)CC1 (configuration not stated) | inactive: 102%
Cc1ccsc1/C=N/NC(=O)c1ccc2c(c1)OCCO2 | inconclusive: 152%
N#CC(C#N)=CNc1cccnc1 | inconclusive: 126%
Cc1csc2nc3cc(C(N)=O)ccc3c(=O)n12 | inconclusive: 131%
Nc1ccc2c(c1Cl)C(=O)c1ccc(N)c(Cl)c1C2=O | inconclusive: 223%
CC(C)CCc1noc(CN2CCC(C(=O)N3CCOCC3)CC2)n1 | inconclusive: 78.6%
CCCCS(=O)CC(COC)OC(=O)c1ccccc1 (configuration not stated) | inconclusive: 103%
O=C(OCC(=O)N1N=C(c2ccc(Cl)cc2)CC1c1ccco1)c1ccco1 (configuration not stated) | inconclusive: 110%
CCN(C(=O)CSc1nnc(-c2cccs2)n1CC)C1CCS(=O)(=O)C1 (configuration not stated) | inconclusive: 83.7%
CCOC(=O)CC1=NN(c2ccccc2)C(=O)C1 | inconclusive: 124%
O=C(NCCc1cccs1)c1ccc(Cl)cc1 | inconclusive: 135%
O=C(CN1CCN(c2ccc([N+](=O)[O-])cc2Cl)CC1)N1CCOCC1 | inconclusive: 105%

Five of these compounds in another layout.
SMILES,binding response (% of control)
N#CC(C#N)=CNc1cccnc1,inconclusive: 126%
Cc1csc2nc3cc(C(N)=O)ccc3c(=O)n12,inconclusive: 131%
Nc1ccc2c(c1Cl)C(=O)c1ccc(N)c(Cl)c1C2=O,inconclusive: 223%
CC(C)CCc1noc(CN2CCC(C(=O)N3CCOCC3)CC2)n1,inconclusive: 78.6%
CCCCS(=O)CC(COC)OC(=O)c1ccccc1 (configuration not stated),inconclusive: 103%
